For at least one entry, the source does not settle the construct or the ends of the probe. The comparison behind a weaker result is the experiment's own reference, which may not be listed here. Tags and fusion partners may be left off the protein sequences shown. At least one verdict rests on a figure or table, not on a statement of the authors. The direction of at least one scale is not stated here.

The record followed here is article PMC7275037.

This data set concerns the target TBP (Homo sapiens) (UniProt P20226). Briefly: smFRET. The following applies: TFIIB 0.2 uM, TFIIA 2 uM, recombinant protein, residues 169-339, protein details: N-terminal His.

Regarding “CGGACCAAGATGATTTGATTGAAGGGCTTAAAATAGGTGTTAGAGTAACCCTTGA (double strand) [U6 snRNA promoter in DNA origami force clamp]”, the binding result (6.6 pN, bent fraction reduced at higher force) is on record as “binds more weakly”.

For the sequence “AAGCTTTAGGGCGCCTATAAAAGGGGGTTCGGGCG (double strand) [AdMLP promoter in DNA origami force clamp]”, the binding result (3.3 pN) is reported as “binds more weakly”. For the same sequence, the binding signal (% high FRET (bent)) (6.0 pN, 20 nM TBP) worked out at 15.

As for “CGGACCAAGATGATTTGATTGAAGGGCTTAAAATAGGTGTTAGAGTAACCCTTGA / TCAAGGGTTACTCTCACACCTATTTTAAGCCCTTCAATCAAATCATCTTGGTCCG [U6 linear dsDNA]”, the binding result (linear dsDNA, E=0.39, label: ATTO 532 and ATTO 647N on S17 strand) was “binds”.
